# Measured values published in the supplement of paper PMC10032668.
# The chains behind the UniProt entries cited, without tags or fusion partners.
# ATP6V0D1, P61421, UniProt P61421, whole entry: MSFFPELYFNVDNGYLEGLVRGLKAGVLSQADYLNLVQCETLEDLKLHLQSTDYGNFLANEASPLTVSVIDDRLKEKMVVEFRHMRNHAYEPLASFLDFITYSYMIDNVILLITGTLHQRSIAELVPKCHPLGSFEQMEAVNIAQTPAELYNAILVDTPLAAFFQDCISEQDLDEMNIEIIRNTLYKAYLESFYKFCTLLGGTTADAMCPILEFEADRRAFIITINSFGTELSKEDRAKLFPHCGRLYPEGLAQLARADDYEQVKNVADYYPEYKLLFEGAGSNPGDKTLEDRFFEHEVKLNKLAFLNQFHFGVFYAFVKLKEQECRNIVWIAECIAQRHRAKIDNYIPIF
# CASC3, O15234, UniProt O15234, whole entry: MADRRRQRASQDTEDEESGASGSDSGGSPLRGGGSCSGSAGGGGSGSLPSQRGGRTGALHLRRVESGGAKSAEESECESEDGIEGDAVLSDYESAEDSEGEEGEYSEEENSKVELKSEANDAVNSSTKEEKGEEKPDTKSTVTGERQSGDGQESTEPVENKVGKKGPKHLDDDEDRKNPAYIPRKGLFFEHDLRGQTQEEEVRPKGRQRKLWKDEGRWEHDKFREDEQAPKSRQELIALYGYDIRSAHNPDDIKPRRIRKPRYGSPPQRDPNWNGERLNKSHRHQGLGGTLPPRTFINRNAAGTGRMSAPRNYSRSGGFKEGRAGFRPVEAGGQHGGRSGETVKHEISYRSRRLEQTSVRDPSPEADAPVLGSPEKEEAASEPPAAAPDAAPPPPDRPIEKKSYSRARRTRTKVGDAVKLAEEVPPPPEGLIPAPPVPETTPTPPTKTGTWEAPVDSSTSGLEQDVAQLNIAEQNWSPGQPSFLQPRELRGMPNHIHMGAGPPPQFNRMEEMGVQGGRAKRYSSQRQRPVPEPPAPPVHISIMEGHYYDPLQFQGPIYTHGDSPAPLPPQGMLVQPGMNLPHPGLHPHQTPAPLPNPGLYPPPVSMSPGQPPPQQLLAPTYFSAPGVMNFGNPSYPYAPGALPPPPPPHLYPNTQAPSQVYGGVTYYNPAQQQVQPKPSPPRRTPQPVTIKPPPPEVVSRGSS
# EIF1, P41567, UniProt P41567, whole entry: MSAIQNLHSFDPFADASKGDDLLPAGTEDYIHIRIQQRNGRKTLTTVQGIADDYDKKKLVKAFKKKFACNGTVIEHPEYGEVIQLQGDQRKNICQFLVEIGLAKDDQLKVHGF
# MORF4L1, Q9UBU8, UniProt Q9UBU8, whole entry: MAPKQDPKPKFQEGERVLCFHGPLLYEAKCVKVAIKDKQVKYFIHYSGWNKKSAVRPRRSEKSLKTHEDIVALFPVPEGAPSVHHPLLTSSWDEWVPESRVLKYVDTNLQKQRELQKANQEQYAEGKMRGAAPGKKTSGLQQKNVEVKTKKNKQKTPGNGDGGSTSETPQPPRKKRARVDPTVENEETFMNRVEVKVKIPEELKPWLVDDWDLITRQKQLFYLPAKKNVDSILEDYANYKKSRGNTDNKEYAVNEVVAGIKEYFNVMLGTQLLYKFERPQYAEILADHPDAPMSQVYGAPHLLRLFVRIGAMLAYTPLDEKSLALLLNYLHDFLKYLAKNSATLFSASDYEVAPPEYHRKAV
# MORF4L2, Q15014, UniProt Q15014, whole entry: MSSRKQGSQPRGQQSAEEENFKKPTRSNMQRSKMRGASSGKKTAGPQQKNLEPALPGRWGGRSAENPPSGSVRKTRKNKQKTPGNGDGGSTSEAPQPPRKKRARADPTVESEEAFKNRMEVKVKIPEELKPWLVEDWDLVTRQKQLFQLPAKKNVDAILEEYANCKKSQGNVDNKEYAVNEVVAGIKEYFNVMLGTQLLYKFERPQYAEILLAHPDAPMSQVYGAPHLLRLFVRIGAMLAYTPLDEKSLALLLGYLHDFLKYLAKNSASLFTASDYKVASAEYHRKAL
# NDUFB7, P17568, UniProt P17568, whole entry: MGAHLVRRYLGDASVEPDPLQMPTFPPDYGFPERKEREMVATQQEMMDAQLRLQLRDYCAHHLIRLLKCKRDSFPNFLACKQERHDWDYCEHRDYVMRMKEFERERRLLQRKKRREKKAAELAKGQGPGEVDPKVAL
# PLK1, P53350, UniProt P53350, whole entry: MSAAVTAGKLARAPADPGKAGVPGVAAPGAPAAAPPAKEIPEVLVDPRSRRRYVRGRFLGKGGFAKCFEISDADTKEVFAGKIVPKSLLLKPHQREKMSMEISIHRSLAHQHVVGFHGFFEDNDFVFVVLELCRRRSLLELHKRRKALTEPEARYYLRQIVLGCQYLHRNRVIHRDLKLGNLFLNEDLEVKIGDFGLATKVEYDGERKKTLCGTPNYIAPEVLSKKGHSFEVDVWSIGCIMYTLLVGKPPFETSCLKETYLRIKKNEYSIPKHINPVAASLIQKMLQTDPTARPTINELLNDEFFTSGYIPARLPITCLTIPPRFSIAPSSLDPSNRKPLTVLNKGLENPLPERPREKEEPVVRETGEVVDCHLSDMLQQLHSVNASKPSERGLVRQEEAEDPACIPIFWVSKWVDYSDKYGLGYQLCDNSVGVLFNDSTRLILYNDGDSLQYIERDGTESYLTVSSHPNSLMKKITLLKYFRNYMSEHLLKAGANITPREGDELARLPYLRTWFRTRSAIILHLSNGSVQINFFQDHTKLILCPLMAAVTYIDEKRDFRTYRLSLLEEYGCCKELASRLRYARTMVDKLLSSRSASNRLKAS
# CSNK2B, P67870, UniProt P67870, whole entry: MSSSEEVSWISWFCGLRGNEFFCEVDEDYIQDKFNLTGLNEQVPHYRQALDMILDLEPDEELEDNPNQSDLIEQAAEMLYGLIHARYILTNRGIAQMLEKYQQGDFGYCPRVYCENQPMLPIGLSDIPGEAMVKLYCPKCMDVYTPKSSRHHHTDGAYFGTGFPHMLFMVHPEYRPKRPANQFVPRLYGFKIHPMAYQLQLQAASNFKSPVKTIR
# PPP1CB, P62140, UniProt P62140, whole entry: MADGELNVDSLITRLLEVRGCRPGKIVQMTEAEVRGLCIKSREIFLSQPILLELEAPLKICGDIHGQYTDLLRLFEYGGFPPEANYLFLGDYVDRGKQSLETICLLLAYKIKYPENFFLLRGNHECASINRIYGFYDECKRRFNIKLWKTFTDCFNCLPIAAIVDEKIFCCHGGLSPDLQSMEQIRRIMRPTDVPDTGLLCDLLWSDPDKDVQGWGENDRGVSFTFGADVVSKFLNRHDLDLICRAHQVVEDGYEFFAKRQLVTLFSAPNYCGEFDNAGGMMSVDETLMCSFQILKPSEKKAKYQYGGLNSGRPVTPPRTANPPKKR
# ± gives the standard deviation of the averaged measurements. Some of the results follow. The list holds hits alone, and they repeat only in part.
# How the values were obtained:
# Experiment in all cases: PRISMA enrichment of interactor (LFQ) in peptide spot vs all other peptide spots (log2 fold change); higher = stronger / more specific binding of the interactor to the peptide
# ALYREF, Q86V81 = molecular target: ALYREF, Q86V81
# Procedure: (§1)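 PRISMA: 15-aa overlapping tiles (offset 8 aa) of 60 microproteins, plus SOS1/GLUT1 control peptides, were spot-synthesized on cellulose membranes in triplicate. Membranes were incubated with benzonase-treated HEK293T lysate, and bound proteins were identified by LC-MS/MS with LFQ. Enrichment is the log2 fold change of each protein in one spot versus all other spots. Only interactors passing the significance cutoff are listed.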
# ATP6V0D1, P61421 = molecular target: ATP6V0D1, P61421
# Procedure: as §1
# C19orf53, Q9UNZ5 = molecular target: C19orf53, Q9UNZ5
# Procedure: as §1
# CASC3, O15234 = molecular target: CASC3, O15234
# Procedure: as §1
# CFAP20, Q9Y6A4 = molecular target: CFAP20, Q9Y6A4
# Procedure: as §1
# CSNK1A1, P48729 = molecular target: CSNK1A1, P48729
# Procedure: as §1
# CSNK1D, P48730 = molecular target: CSNK1D, P48730
# Procedure: as §1
# CSNK1E, P49674 = molecular target: CSNK1E, P49674
# Procedure: as §1
# CXorf56, Q9H5V9 = molecular target: CXorf56, Q9H5V9
# Procedure: as §1
# DDX42, Q86XP3 = molecular target: DDX42, Q86XP3
# Procedure: as §1
# DDX49, Q9Y6V7 = molecular target: DDX49, Q9Y6V7
# Procedure: as §1
# EIF1, P41567 = molecular target: EIF1, P41567
# Procedure: as §1
# EMG1, Q92979 = molecular target: EMG1, Q92979
# Procedure: as §1
# FAM98B, Q52LJ0 = molecular target: FAM98B, Q52LJ0
# Procedure: as §1
# FHL1, Q13642 = molecular target: FHL1, Q13642
# Procedure: as §1
# GABARAPL2, P60520 = molecular target: GABARAPL2, P60520
# Procedure: as §1
# HDDC2, Q7Z4H3 = molecular target: HDDC2, Q7Z4H3
# Procedure: as §1
# MORF4L1, Q9UBU8 = molecular target: MORF4L1, Q9UBU8
# Procedure: as §1
# MORF4L2, Q15014 = molecular target: MORF4L2, Q15014
# Procedure: as §1
# NDUFB7, P17568 = molecular target: NDUFB7, P17568
# Procedure: as §1
# PLK1, P53350 = molecular target: PLK1, P53350
# Procedure: as §1
# [1] = substrate: PPIB, P23284
# Procedure: as §1
# [2] = substrate: PPIF, P30405
# Procedure: as §1
# RBMX, P38159 = molecular target: RBMX, P38159
# Procedure: as §1
# SERF2, P84101 = molecular target: SERF2, P84101
# Procedure: as §1
# SHMT1, P34896 = molecular target: SHMT1, P34896
# Procedure: as §1
# SRP14, P37108 = molecular target: SRP14, P37108
# Procedure: as §1
# STRAP, Q9Y3F4 = molecular target: STRAP, Q9Y3F4
# Procedure: as §1
# ZNF22, P17026 = molecular target: ZNF22, P17026
# Procedure: as §1
# ALKBH2, Q6NS38 = molecular target: ALKBH2, Q6NS38
# Procedure: as §1
# ATXN10, Q9UBB4 = molecular target: ATXN10, Q9UBB4
# Procedure: as §1
# COPS2, P61201 = molecular target: COPS2, P61201
# Procedure: as §1
# COPS7B, Q9H9Q2 = molecular target: COPS7B, Q9H9Q2
# Procedure: as §1
# CSNK2B, P67870 = molecular target: CSNK2B, P67870
# Procedure: as §1
# ESF1, Q9H501 = molecular target: ESF1, Q9H501
# Procedure: as §1
# GPAA1, O43292 = molecular target: GPAA1, O43292
# Procedure: as §1
# GTF2E2, P29084 = molecular target: GTF2E2, P29084
# Procedure: as §1
# GTPBP1, O00178 = molecular target: GTPBP1, O00178
# Procedure: as §1
# MAEA, Q7L5Y9 = molecular target: MAEA, Q7L5Y9
# Procedure: as §1
# MYO1D, O94832 = molecular target: MYO1D, O94832
# Procedure: as §1
# PPP1CB, P62140 = molecular target: PPP1CB, P62140
# Procedure: as §1
# SNX2, O60749 = molecular target: SNX2, O60749
# Procedure: as §1
# TAF15, Q92804 = molecular target: TAF15, Q92804
# Procedure: as §1
binder,measurement,setting,value
DHREFLSTCECFSAS [NAV2-AS2_2],PRISMA enrichment of interactor (log2),"ALYREF, Q86V81",5.61 ± 0.14
same,PRISMA enrichment of interactor (log2),"ATP6V0D1, P61421",5.58
same,PRISMA enrichment of interactor (log2),"C19orf53, Q9UNZ5",7.84
same,PRISMA enrichment of interactor (log2),"CASC3, O15234",4.15
same,PRISMA enrichment of interactor (log2),"CFAP20, Q9Y6A4",4.36
same,PRISMA enrichment of interactor (log2),"CSNK1A1, P48729",5.82
same,PRISMA enrichment of interactor (log2),"CSNK1D, P48730",4.68
same,PRISMA enrichment of interactor (log2),"CSNK1E, P49674",5.21
same,PRISMA enrichment of interactor (log2),"CXorf56, Q9H5V9",5.45
same,PRISMA enrichment of interactor (log2),"DDX42, Q86XP3",7.04
same,PRISMA enrichment of interactor (log2),"DDX49, Q9Y6V7",5.7
same,PRISMA enrichment of interactor (log2),"EIF1, P41567",5.1
same,PRISMA enrichment of interactor (log2),"EMG1, Q92979",7.34
same,PRISMA enrichment of interactor (log2),"FAM98B, Q52LJ0",5.55
same,PRISMA enrichment of interactor (log2),"FHL1, Q13642",3.95
same,PRISMA enrichment of interactor (log2),"GABARAPL2, P60520",4.56
same,PRISMA enrichment of interactor (log2),"HDDC2, Q7Z4H3",4.22
same,PRISMA enrichment of interactor (log2),"MORF4L1, Q9UBU8",4.68
same,PRISMA enrichment of interactor (log2),"MORF4L2, Q15014",5.97
same,PRISMA enrichment of interactor (log2),"NDUFB7, P17568",4.82
same,PRISMA enrichment of interactor (log2),"PLK1, P53350",5.14
same,PRISMA enrichment of interactor (log2),[1],6.2
same,PRISMA enrichment of interactor (log2),[2],6.27
same,PRISMA enrichment of interactor (log2),"RBMX, P38159",5.23
same,PRISMA enrichment of interactor (log2),"SERF2, P84101",5.52
same,PRISMA enrichment of interactor (log2),"SHMT1, P34896",4.08
same,PRISMA enrichment of interactor (log2),"SRP14, P37108",4.99
same,PRISMA enrichment of interactor (log2),"STRAP, Q9Y3F4",4.45
same,PRISMA enrichment of interactor (log2),"ZNF22, P17026",4.37
MRFMPLDPTGALGKR [RP11-464C19.3],PRISMA enrichment of interactor (log2),"ALKBH2, Q6NS38",6.88
same,PRISMA enrichment of interactor (log2),"ATXN10, Q9UBB4",5.27
same,PRISMA enrichment of interactor (log2),"COPS2, P61201",5.09
same,PRISMA enrichment of interactor (log2),"COPS7B, Q9H9Q2",6.1
same,PRISMA enrichment of interactor (log2),"CSNK2B, P67870",6.58
same,PRISMA enrichment of interactor (log2),"ESF1, Q9H501",5.47
same,PRISMA enrichment of interactor (log2),"GPAA1, O43292",4.01
same,PRISMA enrichment of interactor (log2),"GTF2E2, P29084",8.23
same,PRISMA enrichment of interactor (log2),"GTPBP1, O00178",6
same,PRISMA enrichment of interactor (log2),"MAEA, Q7L5Y9",3.94
same,PRISMA enrichment of interactor (log2),"MYO1D, O94832",4.67
same,PRISMA enrichment of interactor (log2),"PPP1CB, P62140",4.78
same,PRISMA enrichment of interactor (log2),"SNX2, O60749",7.49
same,PRISMA enrichment of interactor (log2),"TAF15, Q92804",5.52

# 3 entries drawn at random from those above:
binder,measurement,setting,value
DHREFLSTCECFSAS [NAV2-AS2_2],PRISMA enrichment of interactor (log2),"EIF1, P41567",5.1
same,PRISMA enrichment of interactor (log2),"DDX49, Q9Y6V7",5.7
MRFMPLDPTGALGKR [RP11-464C19.3],PRISMA enrichment of interactor (log2),"TAF15, Q92804",5.52
